Publication PMC10190190 (Journal of Enzyme Inhibition and Medicinal Chemistry, 2023)

Test system: SH-SY5Y cells
Assay: Cell viability assay
Type: cell-based, human
Settings: read-out: cytotoxicity towards SH-SY5Y cells IC50; alamar blue, 24 h

With `O=C(CCCCCCC(=O)Nc1ccccc1)NO` [SAHA] the IC50 was 2420 nM.
